Experimental data: PubChem BioAssay AID504764 (Drosophila RNAi Screening Center, 2011)
Screen: 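Genes whose knock-down alters Notch-dependent transcription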 (primary screen). Cell system: Drosophila Kc167 cells. Reagents: long dsRNA against Drosophila genes. Timing: about 5 days (4 days dsRNA, then 24 h after transfection). Challenge: transfection of constitutively active membrane-tethered Notch lacking the extracellular domain, read 24 h later. Measurement: 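Firefly luciferase from an E(spl)m3 reporter with active Notch, plus control-promoter and uninduced reporter wells for normalisation; unnormalised counts, duplicate wells a and b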. Reading the numbers: induced reporter light, run 1, well a and induced reporter light, run 1, well b: higher = more light from the Notch target reporter with active Notch; control promoter light, run 1, well a and control promoter light, run 1, well b: higher = more light from the viral control promoter (cell number, transfection, viability); uninduced reporter light, run 1, well a: higher = more light from the Notch target reporter without active Notch. Active means: 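Wells with low control signal or poorly matching duplicates excluded; duplicates averaged; per source plate, z beyond ±2 for induced/control log2 ratio or beyond ±1.8 for induced/uninduced marks a hit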. Meaning of the calls: active = modifier hit (raised or lowered Notch signal); inactive = not a hit.
In all, the deposit lists about 22,000 reagents; shown is a random part of those with a known target gene and a result. Of all reagents, 403 (1.9%) are marked active. 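Unnormalised raw counts per well; ratio z-scores behind the hit calls and whether each hit raises or lowers signal are not deposited.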 Not stated in the record: the amount of reagent.

PpD3 (Protein phosphatase D3) [DRSC16796] → induced reporter light, run 1, well a: 90215; induced reporter light, run 1, well b: 1.04e5; control promoter light, run 1, well a: 90750; control promoter light, run 1, well b: 54030; uninduced reporter light, run 1, well a: 6440; activity call: inactive
CG8534 [DRSC16439] → induced reporter light, run 1, well a: 1.40e5; induced reporter light, run 1, well b: 1.39e5; control promoter light, run 1, well a: 1.42e5; control promoter light, run 1, well b: 1.29e5; uninduced reporter light, run 1, well a: 10338; activity call: inactive
Acsx1R (Acyl-CoA synthetase X1 R) [DRSC14339] → induced reporter light, run 1, well a: 1.42e5; induced reporter light, run 1, well b: 1.44e5; control promoter light, run 1, well a: 1.47e5; control promoter light, run 1, well b: 1.29e5; uninduced reporter light, run 1, well a: 10425; activity call: inactive
pins (partner of inscuteable) [DRSC17043] → induced reporter light, run 1, well a: 1.28e5; induced reporter light, run 1, well b: 1.21e5; control promoter light, run 1, well a: 1.59e5; control promoter light, run 1, well b: 1.32e5; uninduced reporter light, run 1, well a: 12450; activity call: inactive
amrt (amaretto) [DRSC19378] → induced reporter light, run 1, well a: 82560; induced reporter light, run 1, well b: 70510; control promoter light, run 1, well a: 91130; control promoter light, run 1, well b: 90500; uninduced reporter light, run 1, well a: 12230; activity call: inactive
GstT1 (Glutathione S transferase T1) [DRSC06243] → induced reporter light, run 1, well a: 1.61e5; induced reporter light, run 1, well b: 1.63e5; control promoter light, run 1, well a: 2.15e5; control promoter light, run 1, well b: 1.97e5; uninduced reporter light, run 1, well a: 15090; activity call: inactive
sut1 (sugar transporter 1) [DRSC07700] → induced reporter light, run 1, well a: 1.27e5; induced reporter light, run 1, well b: 1.29e5; control promoter light, run 1, well a: 1.20e5; control promoter light, run 1, well b: 1.24e5; uninduced reporter light, run 1, well a: 10795; activity call: inactive
su(f) (suppressor of forked) [DRSC20907] → induced reporter light, run 1, well a: 50915; induced reporter light, run 1, well b: 55040; control promoter light, run 1, well a: 51860; control promoter light, run 1, well b: 52450; uninduced reporter light, run 1, well a: 5970; activity call: inactive
Incenp (Inner centromere protein) [DRSC06116] → induced reporter light, run 1, well a: 2.23e5; induced reporter light, run 1, well b: 1.88e5; control promoter light, run 1, well a: 1.50e5; control promoter light, run 1, well b: 1.75e5; uninduced reporter light, run 1, well a: 13725; activity call: inactive
Incenp (Inner centromere protein) [DRSC21950] → activity call: active
CG13928 [DRSC08397] → induced reporter light, run 1, well a: 1.68e5; induced reporter light, run 1, well b: 1.20e5; control promoter light, run 1, well a: 2.09e5; control promoter light, run 1, well b: 2.16e5; uninduced reporter light, run 1, well a: 7475; activity call: inactive
CG4822 [DRSC00669] → induced reporter light, run 1, well a: 1.58e5; induced reporter light, run 1, well b: 2.20e5; control promoter light, run 1, well a: 2.19e5; control promoter light, run 1, well b: 2.23e5; uninduced reporter light, run 1, well a: 17885; activity call: inactive
Diap2 (Death-associated inhibitor of apoptosis 2) [DRSC07444] → induced reporter light, run 1, well a: 1.08e5; induced reporter light, run 1, well b: 1.32e5; control promoter light, run 1, well a: 2.10e5; control promoter light, run 1, well b: 1.75e5; uninduced reporter light, run 1, well a: 9650; activity call: inactive
Ca-beta (Ca2+-channel-protein-beta-subunit) [DRSC02406] → induced reporter light, run 1, well a: 98680; induced reporter light, run 1, well b: 1.23e5; control promoter light, run 1, well a: 60775; control promoter light, run 1, well b: 93410; uninduced reporter light, run 1, well a: 14410; activity call: inactive
Ca-beta (Ca2+-channel-protein-beta-subunit) [DRSC02407] → induced reporter light, run 1, well a: 1.15e5; induced reporter light, run 1, well b: 1.40e5; control promoter light, run 1, well a: 61315; control promoter light, run 1, well b: 97380; uninduced reporter light, run 1, well a: 20270; activity call: inactive
Ca-beta (Ca2+-channel-protein-beta-subunit) [DRSC03285] → induced reporter light, run 1, well a: 1.32e5; induced reporter light, run 1, well b: 1.56e5; control promoter light, run 1, well a: 77505; control promoter light, run 1, well b: 1.20e5; uninduced reporter light, run 1, well a: 16995; activity call: inactive
CG15646 [DRSC19682] → induced reporter light, run 1, well a: 58335; induced reporter light, run 1, well b: 57925; control promoter light, run 1, well a: 82205; control promoter light, run 1, well b: 50655; uninduced reporter light, run 1, well a: 9640; activity call: inactive
CG4770 [DRSC15639] → induced reporter light, run 1, well a: 2.26e5; induced reporter light, run 1, well b: 1.87e5; control promoter light, run 1, well a: 2.12e5; control promoter light, run 1, well b: 2.41e5; uninduced reporter light, run 1, well a: 18840; activity call: inactive

Entries listed above marked active (1):
Incenp (Inner centromere protein) [DRSC21950] → activity call: active
